The list shows a part of the results.
What follows are targets tested with C[C@@H](Oc1cc(-c2cnn(C3CCNCC3)c2)cnc1N)c1c(Cl)ccc(F)c1Cl [crizotinib] (assay: log2 fold change, soluble protein after heating vs DMSO (PISA); higher = thermal stabilisation; K562 lysate, 10 uM; active = over 0.2 and 3.5 SD of the protein, either way, in both replicates (recomputed)).
Summary of the method: (§1)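 Soluble protein was defined as the supernatant remaining after 21,000xg for 90 min, following pooling of heated aliquots and adjustment to 0.5% NP-40 at 4°C. Before that, crude K562 extract at 1 mg/mL protein in PBS pH 7.4 with 1 mM MgCl2 was treated with 10 μM compound for 30 min and heated for 3 min across 48°C-58°C. Quantification used TMTpro 16plex LC-MS/MS with channel sums equalised, and values are log-two fold changes in thermal stability relative to solvent controls from duplicates.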

By UniProt entry, the sequences of proteins in these tests, tags left out. Where a name states a change or a piece, a line headed by the entry shows the natural chain unless it says otherwise.
UniProt Q92502: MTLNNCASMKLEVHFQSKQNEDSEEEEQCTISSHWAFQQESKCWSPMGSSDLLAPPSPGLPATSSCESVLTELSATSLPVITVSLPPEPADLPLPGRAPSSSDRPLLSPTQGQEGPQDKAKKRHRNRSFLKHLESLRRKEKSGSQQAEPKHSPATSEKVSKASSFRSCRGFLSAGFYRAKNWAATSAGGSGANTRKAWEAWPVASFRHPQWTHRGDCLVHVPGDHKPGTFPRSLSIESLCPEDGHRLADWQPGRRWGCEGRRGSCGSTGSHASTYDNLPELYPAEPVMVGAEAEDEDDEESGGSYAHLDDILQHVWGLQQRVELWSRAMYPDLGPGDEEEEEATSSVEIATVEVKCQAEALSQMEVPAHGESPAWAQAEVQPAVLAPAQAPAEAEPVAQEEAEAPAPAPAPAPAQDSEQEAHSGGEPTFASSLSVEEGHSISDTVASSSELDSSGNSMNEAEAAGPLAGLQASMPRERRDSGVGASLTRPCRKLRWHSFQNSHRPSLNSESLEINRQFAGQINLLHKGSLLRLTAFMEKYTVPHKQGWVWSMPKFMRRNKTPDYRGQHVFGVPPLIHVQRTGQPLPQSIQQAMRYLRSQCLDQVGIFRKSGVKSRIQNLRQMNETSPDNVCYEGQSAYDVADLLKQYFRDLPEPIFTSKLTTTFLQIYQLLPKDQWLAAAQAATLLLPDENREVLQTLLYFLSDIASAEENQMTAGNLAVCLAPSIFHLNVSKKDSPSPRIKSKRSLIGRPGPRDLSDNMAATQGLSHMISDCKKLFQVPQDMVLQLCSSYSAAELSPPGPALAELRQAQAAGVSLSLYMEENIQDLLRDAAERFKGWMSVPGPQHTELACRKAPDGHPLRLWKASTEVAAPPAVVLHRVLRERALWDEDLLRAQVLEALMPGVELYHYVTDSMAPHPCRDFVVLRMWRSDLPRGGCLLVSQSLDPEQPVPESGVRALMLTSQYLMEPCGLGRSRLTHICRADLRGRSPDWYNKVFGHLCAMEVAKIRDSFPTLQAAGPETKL
UniProt Q11206: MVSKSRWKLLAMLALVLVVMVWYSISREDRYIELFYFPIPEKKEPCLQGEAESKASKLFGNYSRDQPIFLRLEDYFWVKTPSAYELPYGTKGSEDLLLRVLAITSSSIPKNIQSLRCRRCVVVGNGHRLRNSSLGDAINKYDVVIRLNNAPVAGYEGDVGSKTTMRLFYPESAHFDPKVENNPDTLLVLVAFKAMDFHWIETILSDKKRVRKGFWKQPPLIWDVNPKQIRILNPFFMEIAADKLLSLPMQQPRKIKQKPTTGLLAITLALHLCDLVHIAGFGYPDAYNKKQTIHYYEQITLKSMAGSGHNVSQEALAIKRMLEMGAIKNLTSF
UniProt O95793: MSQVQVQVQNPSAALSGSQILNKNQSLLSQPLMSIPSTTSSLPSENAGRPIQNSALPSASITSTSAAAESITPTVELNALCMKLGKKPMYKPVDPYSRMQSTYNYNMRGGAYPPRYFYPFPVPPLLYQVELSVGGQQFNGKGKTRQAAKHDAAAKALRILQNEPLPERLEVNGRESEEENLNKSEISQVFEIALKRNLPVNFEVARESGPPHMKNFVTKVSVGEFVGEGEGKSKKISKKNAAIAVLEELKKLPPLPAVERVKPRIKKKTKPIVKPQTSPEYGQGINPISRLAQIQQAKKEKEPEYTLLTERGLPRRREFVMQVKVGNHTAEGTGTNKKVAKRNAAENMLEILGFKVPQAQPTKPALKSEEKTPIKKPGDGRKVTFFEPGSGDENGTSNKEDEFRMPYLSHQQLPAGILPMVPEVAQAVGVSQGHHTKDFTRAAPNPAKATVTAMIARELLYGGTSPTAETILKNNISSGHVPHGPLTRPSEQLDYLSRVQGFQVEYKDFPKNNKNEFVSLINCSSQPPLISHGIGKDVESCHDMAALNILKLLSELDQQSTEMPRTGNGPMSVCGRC
UniProt Q68D10: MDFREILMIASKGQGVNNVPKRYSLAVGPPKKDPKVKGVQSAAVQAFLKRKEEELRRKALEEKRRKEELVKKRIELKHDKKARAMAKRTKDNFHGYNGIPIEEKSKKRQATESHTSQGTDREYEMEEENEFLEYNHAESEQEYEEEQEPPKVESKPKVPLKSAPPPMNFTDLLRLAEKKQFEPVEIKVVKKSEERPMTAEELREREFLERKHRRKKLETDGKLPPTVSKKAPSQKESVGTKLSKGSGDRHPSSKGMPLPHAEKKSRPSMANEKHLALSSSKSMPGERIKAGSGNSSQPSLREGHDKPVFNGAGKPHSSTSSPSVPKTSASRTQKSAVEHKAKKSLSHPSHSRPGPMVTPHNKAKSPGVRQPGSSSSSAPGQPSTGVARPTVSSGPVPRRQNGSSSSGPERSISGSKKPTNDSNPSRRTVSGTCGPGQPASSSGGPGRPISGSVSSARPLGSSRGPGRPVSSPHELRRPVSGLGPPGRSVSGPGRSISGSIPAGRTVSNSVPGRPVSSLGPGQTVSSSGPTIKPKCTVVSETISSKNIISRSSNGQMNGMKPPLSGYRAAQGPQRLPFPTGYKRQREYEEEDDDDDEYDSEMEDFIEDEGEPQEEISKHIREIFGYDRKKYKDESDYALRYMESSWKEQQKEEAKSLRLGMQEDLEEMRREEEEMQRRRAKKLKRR
UniProt Q8NCJ5: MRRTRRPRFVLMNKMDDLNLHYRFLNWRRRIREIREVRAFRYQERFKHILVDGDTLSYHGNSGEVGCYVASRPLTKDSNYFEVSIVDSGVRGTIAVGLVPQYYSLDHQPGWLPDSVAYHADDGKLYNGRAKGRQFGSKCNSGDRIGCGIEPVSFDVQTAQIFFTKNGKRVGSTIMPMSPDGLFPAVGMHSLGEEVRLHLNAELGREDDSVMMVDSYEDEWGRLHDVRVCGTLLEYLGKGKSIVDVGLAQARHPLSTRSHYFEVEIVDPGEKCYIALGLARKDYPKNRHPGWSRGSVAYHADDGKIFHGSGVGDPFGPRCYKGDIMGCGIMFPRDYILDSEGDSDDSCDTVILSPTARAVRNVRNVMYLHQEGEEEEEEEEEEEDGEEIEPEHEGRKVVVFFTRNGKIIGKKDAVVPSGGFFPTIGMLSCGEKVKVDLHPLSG
UniProt Q9NY15: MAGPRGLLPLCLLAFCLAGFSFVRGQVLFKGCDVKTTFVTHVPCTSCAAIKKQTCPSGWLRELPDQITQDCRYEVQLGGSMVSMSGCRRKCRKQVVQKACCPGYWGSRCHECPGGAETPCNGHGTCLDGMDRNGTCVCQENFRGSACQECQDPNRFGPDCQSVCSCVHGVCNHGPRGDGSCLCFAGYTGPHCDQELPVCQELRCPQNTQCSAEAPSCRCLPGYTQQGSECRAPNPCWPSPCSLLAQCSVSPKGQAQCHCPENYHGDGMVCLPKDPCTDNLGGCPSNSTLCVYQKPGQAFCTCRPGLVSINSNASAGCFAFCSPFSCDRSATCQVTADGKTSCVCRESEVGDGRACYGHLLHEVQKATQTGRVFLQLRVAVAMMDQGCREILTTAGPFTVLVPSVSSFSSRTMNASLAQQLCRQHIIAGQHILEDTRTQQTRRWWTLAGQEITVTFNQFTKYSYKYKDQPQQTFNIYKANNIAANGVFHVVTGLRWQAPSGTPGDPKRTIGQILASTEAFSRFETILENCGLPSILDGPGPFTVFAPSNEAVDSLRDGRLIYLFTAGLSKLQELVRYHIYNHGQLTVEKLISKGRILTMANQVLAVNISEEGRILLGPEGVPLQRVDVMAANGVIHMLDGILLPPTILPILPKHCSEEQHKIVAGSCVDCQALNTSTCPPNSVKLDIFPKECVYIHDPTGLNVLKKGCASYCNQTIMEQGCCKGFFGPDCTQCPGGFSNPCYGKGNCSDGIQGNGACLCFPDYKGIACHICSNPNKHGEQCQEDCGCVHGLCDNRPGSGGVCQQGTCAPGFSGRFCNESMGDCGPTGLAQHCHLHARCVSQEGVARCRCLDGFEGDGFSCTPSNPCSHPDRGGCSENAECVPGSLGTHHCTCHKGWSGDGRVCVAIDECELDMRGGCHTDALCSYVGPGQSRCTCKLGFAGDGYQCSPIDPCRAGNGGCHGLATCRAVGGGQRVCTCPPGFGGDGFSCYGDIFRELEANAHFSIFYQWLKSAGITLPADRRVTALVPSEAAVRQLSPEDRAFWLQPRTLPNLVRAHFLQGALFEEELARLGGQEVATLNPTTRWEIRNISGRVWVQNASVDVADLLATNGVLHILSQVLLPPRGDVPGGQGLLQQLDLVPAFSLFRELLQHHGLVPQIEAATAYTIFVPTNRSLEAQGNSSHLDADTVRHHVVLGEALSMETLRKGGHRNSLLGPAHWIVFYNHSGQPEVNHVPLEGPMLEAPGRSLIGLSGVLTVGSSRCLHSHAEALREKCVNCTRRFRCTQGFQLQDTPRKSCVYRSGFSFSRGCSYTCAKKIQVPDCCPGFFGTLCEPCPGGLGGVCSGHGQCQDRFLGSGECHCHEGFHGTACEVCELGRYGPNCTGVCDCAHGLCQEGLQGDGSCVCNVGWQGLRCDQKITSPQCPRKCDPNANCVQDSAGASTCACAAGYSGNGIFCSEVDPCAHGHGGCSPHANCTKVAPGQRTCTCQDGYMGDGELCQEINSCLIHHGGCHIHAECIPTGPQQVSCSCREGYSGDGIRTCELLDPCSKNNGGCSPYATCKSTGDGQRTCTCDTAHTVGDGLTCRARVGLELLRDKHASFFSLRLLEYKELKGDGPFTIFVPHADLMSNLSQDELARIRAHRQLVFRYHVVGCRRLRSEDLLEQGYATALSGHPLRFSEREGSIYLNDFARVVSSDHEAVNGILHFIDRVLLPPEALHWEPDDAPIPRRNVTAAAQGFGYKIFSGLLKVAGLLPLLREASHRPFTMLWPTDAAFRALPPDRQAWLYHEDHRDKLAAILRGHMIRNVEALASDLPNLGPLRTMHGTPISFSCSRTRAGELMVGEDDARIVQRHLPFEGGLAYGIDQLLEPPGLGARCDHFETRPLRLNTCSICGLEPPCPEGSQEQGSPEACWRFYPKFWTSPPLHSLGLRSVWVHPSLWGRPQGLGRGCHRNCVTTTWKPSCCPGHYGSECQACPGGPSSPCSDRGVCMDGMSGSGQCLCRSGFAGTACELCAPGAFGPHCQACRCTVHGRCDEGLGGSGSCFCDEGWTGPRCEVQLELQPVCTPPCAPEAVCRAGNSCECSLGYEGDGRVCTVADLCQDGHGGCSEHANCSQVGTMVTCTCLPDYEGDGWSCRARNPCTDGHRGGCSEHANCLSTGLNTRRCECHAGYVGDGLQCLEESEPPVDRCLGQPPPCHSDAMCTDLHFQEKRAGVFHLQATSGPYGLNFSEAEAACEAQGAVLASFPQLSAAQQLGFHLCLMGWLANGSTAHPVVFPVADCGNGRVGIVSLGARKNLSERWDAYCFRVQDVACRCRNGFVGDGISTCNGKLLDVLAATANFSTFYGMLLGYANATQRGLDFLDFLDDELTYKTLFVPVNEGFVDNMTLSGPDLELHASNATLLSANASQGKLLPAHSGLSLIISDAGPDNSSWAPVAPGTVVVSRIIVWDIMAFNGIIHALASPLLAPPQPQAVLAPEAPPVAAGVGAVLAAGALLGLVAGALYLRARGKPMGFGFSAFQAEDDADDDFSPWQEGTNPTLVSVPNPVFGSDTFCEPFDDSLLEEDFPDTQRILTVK
UniProt P49675, whole entry, looked up: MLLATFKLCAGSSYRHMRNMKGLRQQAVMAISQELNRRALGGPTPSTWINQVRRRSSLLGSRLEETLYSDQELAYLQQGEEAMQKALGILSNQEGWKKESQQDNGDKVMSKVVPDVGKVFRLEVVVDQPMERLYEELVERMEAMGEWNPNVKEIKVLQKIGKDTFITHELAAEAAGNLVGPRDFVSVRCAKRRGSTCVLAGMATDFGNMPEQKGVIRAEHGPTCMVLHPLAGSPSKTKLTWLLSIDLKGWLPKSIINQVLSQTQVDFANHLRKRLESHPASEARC
UniProt Q11201: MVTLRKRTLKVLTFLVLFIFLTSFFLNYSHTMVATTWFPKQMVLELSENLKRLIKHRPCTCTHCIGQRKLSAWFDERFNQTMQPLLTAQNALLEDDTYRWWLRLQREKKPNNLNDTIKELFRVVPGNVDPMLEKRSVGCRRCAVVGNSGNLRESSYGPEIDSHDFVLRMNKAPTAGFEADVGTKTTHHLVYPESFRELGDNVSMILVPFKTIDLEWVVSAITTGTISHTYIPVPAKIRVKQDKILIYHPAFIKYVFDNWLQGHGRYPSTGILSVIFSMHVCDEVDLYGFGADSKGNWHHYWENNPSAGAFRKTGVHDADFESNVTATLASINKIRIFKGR
UniProt Q56A73: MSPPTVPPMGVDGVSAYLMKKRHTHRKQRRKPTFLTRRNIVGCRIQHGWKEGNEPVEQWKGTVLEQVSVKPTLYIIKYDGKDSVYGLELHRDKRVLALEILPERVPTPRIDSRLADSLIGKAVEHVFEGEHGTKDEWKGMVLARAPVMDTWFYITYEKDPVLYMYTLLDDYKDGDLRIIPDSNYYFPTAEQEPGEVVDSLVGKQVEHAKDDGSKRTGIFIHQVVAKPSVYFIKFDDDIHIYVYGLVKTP

log2 fold change, inactive:
SPTBN1 isoform 3 (UniProt Q01082) 0.131
STARD8 isoform 2 (UniProt Q92502) 0.079
ST3GAL4 isoform 4 (UniProt Q11206) 0.143
SQOR (UniProt Q9Y6N5) -0.081
SSBP2 (UniProt P81877) 0.054
STAT1 isoform 2 (UniProt P42224) -0.02
STAU1 isoform 3 (UniProt O95793) 0.049
SS18L1 (UniProt O75177) -0.04
SPTY2D1 (UniProt Q68D10) 0.107
SRGAP2, A0A075B7B5 0.018
STAM (UniProt A6NMU3) 0.047
SSX1 (UniProt Q16384) -0.056
SPTAN1 isoform 3 (UniProt Q13813) -0.16
SPRYD3 (UniProt Q8NCJ5) -0.07
STAB1 (UniProt Q9NY15) -0.376
SRRD (UniProt Q9UH36) -0.098
STAR (UniProt P49675) -0.123
SREBF1 isoform 4 (UniProt P36956) -0.031
ST6GALNAC1 (UniProt Q9NSC7) 0.015
ST3GAL1 (UniProt Q11201) 0.272
SPC24 (UniProt K7ESQ2) -0.019

These targets were tested with C[C@H](C1=CC=C(C=C1)C(=O)NC2=C3C=CNC3=NC=C2)N in the same assay as above.
Summary of the method: as §1

log2 fold change, inactive:
ST3GAL4 isoform 4 (UniProt Q11206) -0.087
SSBP2 (UniProt P81877) 0.186
SRCIN1 (UniProt Q9C0H9) -0.095
STAU1 isoform 3 (UniProt O95793) -0.298
STARD4 (UniProt Q96DR4) -0.053
SS18L1 (UniProt O75177) -0.09
SSBP4 (UniProt U3KPY3) -0.094
SPIN4 (UniProt Q56A73) 0.294
SPTY2D1 (UniProt Q68D10) 0
SSX1 (UniProt Q16384) 0.049
SSX2IP (UniProt Q9Y2D8) 0.071
SPRYD3 (UniProt Q8NCJ5) -0.074
SRRD (UniProt Q9UH36) -0.054
STAR (UniProt P49675) 0.117
ST6GALNAC1 (UniProt Q9NSC7) 0.069
SPC24 (UniProt K7ESQ2) -0.008

— the supplement of paper PMC10849652
